Measurements from PubChem BioAssay AID493014 (National Center for Advancing Translational Sciences (NCATS), 2011).
The list shows a part of the results. Further columns of the screen follow, without active or inactive calls. Compounds called inactive in the main read-out are mostly missing here. Potencies come from curve fits of mixed quality, noted in brackets.

Assay: qHTS Assay to Find Inhibitors of Chronic Active B-Cell Receptor Signaling
Conditions: ABC-DLBCL IkBa-CBG/CBR reporter, luminescence ratio (green luciferase fused to IkBa over red control in TMD8 lymphoma cells), 4 h
Outline: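 TMD8 human ABC-DLBCL cells with doxycycline-inducible IκBα–green luciferase fusion and unfused red luciferase, in 0.5% FBS medium; compounds up to 46 uM, 4 h at 37C. Green/red luminescence ratio, filter-overlap corrected, fitted to concentration-response curves.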

[1] = measured here: CBR red luminescence, cell number
[2] = measured here: IkBa-CBG green luminescence

SMILES | AC50 [1] | AC50 [2]
COCCN(C(=O)COC(=O)CSc1ccc2ccccc2c1)c1c(N)n(Cc2ccccc2)c(=O)[nH]c1=O | 23.1 µM [falling, single point] | –
O=[N+]([O-])c1ccn(-c2nc(-c3ccccc3)cc(C(F)(F)F)n2)n1 | 31.6 µM [rising, single point] | –
N#CCSCC(=O)Nc1ccc(Br)cc1 | 18.4 µM [rising, single point] | –
COc1ccc(C)cc1NC(=O)CNC(c1ccccc1)c1ccc(C)cc1 (stereo unspecified) | 3.55 µM [rising, full curve, poor fit] | 11.2 µM [falling, partial curve]
Oc1ccccc1-c1nnc(COc2ccccc2)o1 | 35.5 µM [falling, single point] | –
O=C(Nc1cccc(NC(=O)c2cccs2)c1)c1ccc2c(c1)OCCO2 | 3.55 µM [falling, partial curve, poor fit] | 12.6 µM [rising, partial curve, poor fit]
O=C1/C(=C\c2cccs2)N=C(c2cccs2)N1Nc1ccccc1 | 6.51 µM [rising, full curve, poor fit] | –
O=C(N/N=C/c1ccc(OC(=O)c2ccccc2Cl)cc1)c1cc(O)cc(O)c1 | 10 µM [falling, partial curve] | –
Cc1nc2ccccc2nc1Nc1cccc(Cl)c1 | 1.12 µM [rising, partial curve, poor fit] | –
N#C/C(=C\C1=C(N2CCOCC2)C(=C/c2cccc([N+](=O)[O-])c2)/CC1)C(=O)Nc1ccccc1F | 0.651 µM [rising, full curve] | –
CCCOc1ccc2nc(NC(=O)OC)[nH]c2c1 | 8.2 µM [rising, partial curve, poor fit] | 5.8 µM [falling, full curve]
Cc1ccc(NC(=O)CN2CCOCC2)cc1 | 35.5 µM [rising, single point] | –
C/C(=N\NC(=O)Cc1ccccc1)c1cccs1 | 6.31 µM [rising, single point] | –
O=C(O)c1cc(N/N=C/c2c[nH]c3ccccc23)ccc1Cl | 8.91 µM [falling, partial curve] | –
Cc1[nH]n(-c2ccccc2)c(=O)c1/C=N/NC(=O)c1ccccc1F | 1.12 µM [falling, full curve] | –
COC(=O)c1ccc(COc2ccc3c(C)c(C)c(=O)oc3c2)o1 | 3.55 µM [falling, single point] | –
CC(=O)Nc1cccc(C(=O)/C=C/c2cccs2)c1 | 14.6 µM [falling, partial curve] | –
Fc1ccccc1C1CC(c2ccco2)=Nc2ccccc2S1 (stereo unspecified) | – | 35.5 µM [falling, partial curve, poor fit]
CCc1ccc(NC(=S)N(Cc2ccc(Cl)cc2)Cc2ccc(C(=O)O)cc2)cc1 | 10 µM [falling, partial curve] | –
CC1CCc2nc(/C(C#N)=C/c3cccnc3)sc2C1 (stereo unspecified) | 3.98 µM [rising, full curve, poor fit] | –
COc1ccc(Cn2c(=O)cc(N)n(-c3ccccc3C)c2=O)cc1 | 3.16 µM [rising, full curve, poor fit] | –

Two entries from above, set out differently:
SMILES	AC50 [1]	AC50 [2]
COC(=O)c1ccc(COc2ccc3c(C)c(C)c(=O)oc3c2)o1	3.55 µM [falling, single point]	–
COc1ccc(Cn2c(=O)cc(N)n(-c3ccccc3C)c2=O)cc1	3.16 µM [rising, full curve, poor fit]	–

The list continues:

SMILES | AC50 [1] | AC50 [2]
COc1ccc(/C=C(/NC(=O)c2ccc(OC)cc2)C(=O)NCCc2c[nH]c3ccccc23)cc1 | 0.92 µM [rising, full curve] | –
CCNC(=S)Nc1ccc(Cc2ccncc2)cc1 | 12.6 µM [rising, partial curve, poor fit] | –
Cc1ccccc1NC(=O)C(Cc1ccccc1)n1cccc1 (stereo unspecified) | 0.631 µM [rising, full curve, poor fit] | –
Cc1cc(C)c(S(=O)(=O)N2CCCCC2CCNC(=O)C(=O)NCCN2CCOCC2)c(C)c1 (stereo unspecified) | 29.1 µM [falling, single point] | –
COc1ccc(C(c2sc3ncnn3c2O)N2CC(C)OC(C)C2)cc1OC (stereo unspecified) | 5.8 µM [falling, partial curve] | –
Cc1onc(-c2ccccc2Cl)c1C(=O)Oc1cc(N)n(S(=O)(=O)c2ccc(F)cc2)n1 | 35.5 µM [falling, single point] | –
CN1CCN(C(=S)NCCc2ccccc2)CC1 | 29.1 µM [rising, single point] | –
Cc1ccccc1Nc1nc(N)nc(COC(=O)[C@@H](NC(=O)c2ccccc2Cl)C(C)C)n1 | 29.1 µM [rising, single point] | –
Cc1cc(/C=N/NC(=O)c2cccnc2)c(C)n1CC(C)C | 22.4 µM [falling, single point] | –
Cc1c(-c2cccs2)[n+](=O)c2c(n1[O-])CCCC2 | 1.84 µM [rising, partial curve, poor fit] | –
Cc1ccc(NCc2nnc(SCC(=O)Nc3ncc(C)s3)n2CC2CCCO2)c(C)c1 (stereo unspecified) | 11.2 µM [falling, partial curve, poor fit] | –
Nc1cccc(CN2CCCC2)c1 | 5.62 µM [falling, partial curve, poor fit] | –
Cc1cc(C)c(C)c(S(=O)(=O)N2CCN(C(=O)c3cc(=O)[nH]c4ccccc34)CC2)c1C | 7.08 µM [rising, partial curve, poor fit] | 14.1 µM [falling, partial curve, poor fit]
O=C(Nc1nc(-c2ccco2)c(-c2ccco2)s1)C1CC(=O)N(c2ccc3c(c2)OCCO3)C1 (stereo unspecified) | 13 µM [falling, partial curve, poor fit] | –
N#Cc1ccc(/C=C(\C(=O)C(=O)O)c2ccc3ccccc3n2)cc1 | 2.82 µM [rising, full curve, poor fit] | –
CC(=O)c1c[nH]c2ccc(C)cc2c1=O | 9.2 µM [falling, partial curve, poor fit] | –
O=C(NCc1cccc(Cl)c1)c1cc(=O)[nH]c2ccccc12 | 3.98 µM [rising, full curve, poor fit] | –
CCN1C(=O)/C(=C/C=C2/CCCN2C)OC1=S | 6.31 µM [rising, partial curve, poor fit] | –
COc1cccc(N2CCN(CC(=O)NC(C)c3ccccc3)CC2)c1 (stereo unspecified) | 39.8 µM [rising, partial curve, poor fit] | –
O=C(CN(c1ccc2c(c1)OCCO2)S(=O)(=O)c1ccccc1)N1CCN(Cc2ccccc2)CC1 | 22.4 µM [rising, single point] | –
C/C(=N\NC(=O)COc1ccc(C)cc1[N+](=O)[O-])c1cccs1 | 0.251 µM [rising, full curve, poor fit] | –

Complete entries from above.
CCNC(=S)Nc1ccc(Cc2ccncc2)cc1 is entered as AC50 [1]: 12.6 µM [rising, partial curve, poor fit]
Nc1cccc(CN2CCCC2)c1 is entered as AC50 [1]: 5.62 µM [falling, partial curve, poor fit]
CN1CCN(C(=S)NCCc2ccccc2)CC1 is entered as AC50 [1]: 29.1 µM [rising, single point]

Following part.

SMILES | AC50 [1] | AC50 [2]
COc1c(C(=O)Nc2nnc(C3CC3)s2)csc1Cl | 0.562 µM [rising, full curve, poor fit] | –
CCc1cccc2c(C(=O)CN3C(=O)NC(C)(c4cccc5ccccc45)C3=O)c[nH]c12 (stereo unspecified) | 7.08 µM [falling, partial curve] | –
CC(=O)Nc1ccc(C(=O)OC2CCCCC2=O)cc1 (stereo unspecified) | 8.2 µM [rising, partial curve, poor fit] | –
Cc1c(C)c2ccc(OC3CCCCC3=O)cc2oc1=O (stereo unspecified) | 5.17 µM [rising, full curve, poor fit] | –
COc1cc(C(=O)NNC(=S)NC(=O)c2ccc(F)cc2)cc(OC)c1OC | 8.91 µM [rising, partial curve, poor fit] | –
Cc1ccc(C(=O)/C=C/Nc2cccc(O)c2)cc1 | 20.6 µM [falling, partial curve] | –
Cc1ccc(S(=O)(=O)c2nc(C)c3c(n2)CCC3)cc1 | 18.4 µM [rising, single point] | –
CC(C)OP(=O)(c1ccc(N(C)C)cc1)C(O)c1ccc(Br)cc1 (stereo unspecified) | 5.62 µM [rising, partial curve, poor fit] | –
C[C@H](NC(=O)c1[nH]cnc1C(=O)Nc1ccccc1)c1ccccc1 | – | 20.6 µM [rising, partial curve, poor fit]
C=CC[C@@H](Cc1ccc(F)cc1)C(=O)OC[C@H]1CCCN1C(=O)[C@@H](CC=C)CC(=O)N(CCO)Cc1ccccc1 | 16.4 µM [falling, partial curve] | –
Cc1cc(C(F)(F)F)n2nc(-c3cnn(C)c3C(F)(F)F)c(Cl)c2n1 | 20 µM [rising, partial curve, poor fit] | –
Cc1[nH]c2ccccc2c1C(c1ccncc1)N1CCN(c2ccccc2F)CC1 (stereo unspecified) | 20.6 µM [falling, single point] | –
O=C(Nc1ccc2nc(N3CCOCC3)sc2c1)c1ccccc1 | 16.4 µM [falling, single point] | –
NC(=O)c1cc2ccccc2o/c1=N\NC(=O)c1ccc(F)cc1 | 0.794 µM [rising, full curve, poor fit] | –
COC(=O)CNC(=O)CCC(=O)N1CCN(C(c2ccccc2)c2ccccc2)CC1 | 3.98 µM [rising, single point] | –
COc1ccc(CCNc2ccncn2)cc1OC | 16.4 µM [rising, single point] | –
C[C@H](CO)N1C[C@H](C)[C@@H](CN(C)Cc2ccc(Cl)c(Cl)c2)Oc2c(NC(=O)Cc3ccccc3)cccc2C1=O | 20.6 µM [falling, partial curve] | –
O=C(CN1CCN(S(=O)(=O)c2ccc(Cl)c(Cl)c2)CC1)N1CCCC1 | – | 32.6 µM [falling, partial curve, poor fit]
O=C(Nc1cc(Cl)ccc1N1CCOCC1)c1ccc(Br)o1 | 0.282 µM [rising, full curve, poor fit] | –
Oc1ccc(Cl)cc1CNCc1ccc(F)c(F)c1 | 6.51 µM [rising, partial curve, poor fit] | –
